In PMC12827327:
Results are given in words; binding and its absence hold for the method and conditions named.

Chains of the proteins cited; added tags and fusions are not shown.
UniProt Q9H299: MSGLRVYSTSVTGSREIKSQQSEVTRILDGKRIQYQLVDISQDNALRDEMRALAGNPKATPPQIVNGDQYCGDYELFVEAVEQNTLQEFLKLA
UniProt Q9UJC5: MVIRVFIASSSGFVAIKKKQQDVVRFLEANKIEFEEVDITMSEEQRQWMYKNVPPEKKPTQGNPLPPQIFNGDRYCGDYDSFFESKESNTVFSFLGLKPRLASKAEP

Tests used:
human SH3BGRL-3 (human) = human SH3BGRL-3 (human) (UniProt Q9H299); assay: AUC; sedimentation velocity of each SH3BGRL isoform alone; 50,000 rpm, 20 °C; 25 mM HEPES pH 7.4, 50 mM NaCl, 0.5 mM TCEP; continuous c(s) model (SEDFIT); both purified
human SH3BGRL-2 (human) = human SH3BGRL-2 (human) (UniProt Q9UJC5); assay: as above

binding (human SH3BGRL-3 (human))	Substance	binding (human SH3BGRL-2 (human))
no binding	human SH3BGRL-3 (from UniProt Q9H299 1-93)	
	human SH3BGRL-2 (from UniProt Q9UJC5 1-107)	no binding (tested: 1 µM, 3 µM and 17 µM)
